# Tested on: Histiocytoma U937 cells
# Experiment: Spontaneous and maximum release of labeled compound, time-resolved fluorometric assay (Eu assay)
# Assay type: cell-based
# Conditions: 25 μM compound, maximum release divided by spontaneous release (%)
# Protocol: Histiocytoma U937 cells were cultured in 30 mL of RPMI1640 medium under the conditions of 37° C., 5% CO2 overnight, the culture medium (30 mL) was placed in a 50 mL conical tube, and the cell number was counted. After centrifugation at 1700 rpm at 4° C. for 5 min, the supernatant was removed, and the cell pellets were resuspended in RPMI1640 medium at 1×10^6 cells/mL. To the cell suspension (1 mL) in a 15 mL conical tube was added 2.5 μL of a compound represented by the formula (I) or a salt thereof (10 mM stock solution) (final concentration: 25 μM), and the mixture was incubated under the conditions of 37° C., 5% CO2 for 15 min. The cells were washed 3 times with 5 mL of RPMI1640 medium, and resuspended in 5 mL of RPMI1640 medium. The cell suspension (2 mL) was placed in a 15 mL conical tube containing 6 mL of RPMI1640 medium to adjust the cell concentration to 5×10^3 cells/100 μL. The cell suspension (100 μL) was seeded in 6 wells of a 96 flat bottom plate. 100 μL of RPMI1640 medium was added to wells for determining the amount of spontaneous release, and 90 μL of RPMI1640 medium was added to wells for determining the amount of maximum release. The plates were centrifuged at 500 rpm, room temperature for 2 min and incubated under 37° C., 5% CO2 condition for 30 min. A newly-prepared 0.125% digitonin solution in 19% DMSO (mixed solution of 3 mg digitonin, 0.456 mL DMSO and 1.944 mL H2O) (10 μL) was added to the aforementioned wells for determining the amount of maximum release, mixed well and further incubated for 30 min. After incubation, the cell suspension was mixed well again, and centrifuged at 1700 rpm, room temperature for 2 min. After the centrifugation, the supernatant (25 μL) was carefully transferred into wells containing 250 μL of europium solution in a 96 flat bottom plate, and 200 μL of the solution thereof was placed in a 96-well flat bottom plate.
# The plate was allowed to stand for 15 min, and the time-resolved fluorescence was measured by ARVO multiplate reader.
row,SMILES,labeled molecule advantage Index (B/C)
1,"CCCC(=O)OCOC(=O)c1cccc(-c2cc(OCCCO)cc(-c3cccc(C(=O)OCOC(=O)CCC)n3)n2)n1 [Example 6, bis(butyryloxymethyl) 4′-(3-hydroxypropoxy)-2,2′:6′,2″-terpyridine-6,6″-dicarboxylate]",11174
2,"CC(=O)OCOC(=O)c1cccc(-c2cc(CO)cc(-c3cccc(C(=O)OCOC(C)=O)n3)n2)n1 [Example 9, bis(acetoxymethyl) 4′-(hydroxymethyl)-2,2′:6′,2″-terpyridine-6,6″-dicarboxylate]",7671
3,"CCCC(=O)OCOC(=O)c1cccc(-c2cc(OCCO)cc(-c3cccc(C(=O)OCOC(=O)CCC)n3)n2)n1 [Example 1, bis(butyryloxymethyl) 4′-(2-hydroxyethoxy)-2,2′:6′,2″-terpyridine-6,6″-dicarboxylate]",6775
4,"CC(=O)OCOC(=O)c1cccc(-c2cc(OCCO)cc(-c3cccc(C(=O)OCOC(C)=O)n3)n2)n1 [Example 3, bis(acetoxymethyl) 4′-(2-hydroxyethoxy)-2,2′:6′,2″-terpyridine-6,6″-dicarboxylate]",9841
5,"CCC(=O)OCOC(=O)c1cccc(-c2cc(OCCO)cc(-c3cccc(C(=O)OCOC(=O)CC)n3)n2)n1 [Example 5, bis(propionyloxymethyl) 4′-(2-hydroxyethoxy)-2,2′:6′,2″-terpyridine-6,6″-dicarboxylate]",8889
6,"CCCC(=O)OCOC(=O)c1cccc(-c2cc(OCCOCCO)cc(-c3cccc(C(=O)OCOC(=O)CCC)n3)n2)n1 [Example 7, bis(butyryloxymethyl) 4′-(2-(2-hydroxyethoxy)ethoxy)-2,2′:6′,2″-terpyridine-6,6″-dicarboxylate]",6594
7,"CC(=O)OCOC(=O)c1cccc(-c2cccc(-c3cccc(C(=O)OCOC(C)=O)n3)n2)n1 [BATDA, bis(acetoxymethyl) 2,2′:6′,2″-terpyridine-6,6″-dicarboxylate, reference compound]",5091
8,"CCCNC(=O)COc1cc(-c2cccc(C(=O)OCOC(C)=O)n2)nc(-c2cccc(C(=O)OCOC(C)=O)n2)c1 [Example 2, bis(acetoxymethyl) 4′-(2-oxo-2-(propylamino)ethoxy)-2,2′:6′,2″-terpyridine-6,6″-dicarboxylate]",5170
9,"CCCC(=O)OCOC(=O)c1cccc(-c2cc(OCC=O)cc(-c3cccc(C(=O)OCOC(=O)CCC)n3)n2)n1 [Example 4, bis(butyryloxymethyl) 4′-(2-oxyethoxy)-2,2′:6′,2″-terpyridine-6,6″-dicarboxylate]",5204
